# Reference: PubChem BioAssay AID1224830 (NIAID, 2016)
# Aim: 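Genes whose knock-down alters the TNF-alpha reporter response to LPS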 (primary screen)
# Cell system: human THP-1 monocytic leukaemia cells, TNF dual-luciferase reporter clone, PMA-differentiated to macrophage-like cells
# Reagents: siRNA pool against human genes, 50 nM
# Timing: LPS for 4 h, given about 3 days after siRNA transfection
# Treatment: bacterial LPS (TLR4 ligand), 10 ng/ml
# Measurement: 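Ratio of firefly to renilla light, scaled to the plate median and expressed as a robust z-score per replicate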
# Direction: TNF reporter robust z-score: higher = stronger TNF reporter response to LPS
# Hit rule: 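Each well counts as active if its z-score is over 2.8 or under -1.5; controls are left without a call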
# The whole screen tested about 18,000 reagents; shown is a random part of them. About 2,900 of all reagents (16%) were called active. 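Calls are made per well; low scores hint the gene aids the LPS response, high scores that it dampens it.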 Entries without a mark were called inactive. Repeated entries: four replicate wells of each siRNA pool.
The opening 2 entries, to show the layout:
gene symbol,TNF reporter robust z-score
DIO1 (iodothyronine deiodinase 1),-0.51
DIO1 (iodothyronine deiodinase 1),-0.95

Results, repeating the preview:
gene symbol,TNF reporter robust z-score
DIO1 (iodothyronine deiodinase 1),-0.51
DIO1 (iodothyronine deiodinase 1),-0.95
DIO1 (iodothyronine deiodinase 1),-0.66
DIO1 (iodothyronine deiodinase 1),-0.19
"GIMAP1 (GTPase, IMAP family member 1)",0.18
"GIMAP1 (GTPase, IMAP family member 1)",0.66
"GIMAP1 (GTPase, IMAP family member 1)",0.93
"GIMAP1 (GTPase, IMAP family member 1)",0.74
TEAD1 (TEA domain transcription factor 1),-0.75
TEAD1 (TEA domain transcription factor 1),0.08
TEAD1 (TEA domain transcription factor 1),-0.7
TEAD1 (TEA domain transcription factor 1),0.86
FBXL4 (F-box and leucine rich repeat protein 4),1.47
FBXL4 (F-box and leucine rich repeat protein 4),-0.45
FBXL4 (F-box and leucine rich repeat protein 4),3.23 (active)
FBXL4 (F-box and leucine rich repeat protein 4),2.04
TLR8 (toll like receptor 8),-0.93
TLR8 (toll like receptor 8),-0.42
TLR8 (toll like receptor 8),-0.84
TLR8 (toll like receptor 8),-0.34
FREM2 (FRAS1 related extracellular matrix 2),-0.92
FREM2 (FRAS1 related extracellular matrix 2),-0.84
FREM2 (FRAS1 related extracellular matrix 2),-1.03
FREM2 (FRAS1 related extracellular matrix 2),-0.38
AGFG1 (ArfGAP with FG repeats 1),-1.19
AGFG1 (ArfGAP with FG repeats 1),-1.02
AGFG1 (ArfGAP with FG repeats 1),-0.42
AGFG1 (ArfGAP with FG repeats 1),-0.85
KDM8 (lysine demethylase 8 (putative)),0.5
KDM8 (lysine demethylase 8 (putative)),2.99 (active)
KDM8 (lysine demethylase 8 (putative)),2.42
KDM8 (lysine demethylase 8 (putative)),1.54
GPR160 (G protein-coupled receptor 160),-0.84
GPR160 (G protein-coupled receptor 160),-0.67
GPR160 (G protein-coupled receptor 160),-0.6
GPR160 (G protein-coupled receptor 160),-0.05
JSRP1 (junctional sarcoplasmic reticulum protein 1),0.69
JSRP1 (junctional sarcoplasmic reticulum protein 1),0.73
JSRP1 (junctional sarcoplasmic reticulum protein 1),-0.23
JSRP1 (junctional sarcoplasmic reticulum protein 1),0.22
SEMA6A (semaphorin 6A),1.6
SEMA6A (semaphorin 6A),0.75
SEMA6A (semaphorin 6A),0.8
SEMA6A (semaphorin 6A),0.39
ASCL1 (achaete-scute family bHLH transcription factor 1),1.13
ASCL1 (achaete-scute family bHLH transcription factor 1),1.34
ASCL1 (achaete-scute family bHLH transcription factor 1),0.4
ASCL1 (achaete-scute family bHLH transcription factor 1),2.2
RECQL5 (RecQ like helicase 5),1.04
RECQL5 (RecQ like helicase 5),0.83
RECQL5 (RecQ like helicase 5),2
RECQL5 (RecQ like helicase 5),1.75
DUSP4 (dual specificity phosphatase 4),0.25
DUSP4 (dual specificity phosphatase 4),1.62
DUSP4 (dual specificity phosphatase 4),0.14
DUSP4 (dual specificity phosphatase 4),1.34
OR6K6 (olfactory receptor family 6 subfamily K member 6),1.45
OR6K6 (olfactory receptor family 6 subfamily K member 6),1.66
OR6K6 (olfactory receptor family 6 subfamily K member 6),1.62
MRAP (melanocortin 2 receptor accessory protein),1.08
MRAP (melanocortin 2 receptor accessory protein),1.03
MRAP (melanocortin 2 receptor accessory protein),0
MRAP (melanocortin 2 receptor accessory protein),1.41
CAMLG (calcium modulating ligand),-1.25
CAMLG (calcium modulating ligand),-0.64
CAMLG (calcium modulating ligand),-0.55
CAMLG (calcium modulating ligand),-1.16
IRGQ (immunity related GTPase Q),-0.63
IRGQ (immunity related GTPase Q),-0.31
IRGQ (immunity related GTPase Q),-0.64
IRGQ (immunity related GTPase Q),0.52
USPL1 (ubiquitin specific peptidase like 1),-1.77 (active)
USPL1 (ubiquitin specific peptidase like 1),-1.47
USPL1 (ubiquitin specific peptidase like 1),-1.56 (active)
USPL1 (ubiquitin specific peptidase like 1),-1.57 (active)
